Experimental data as given in PMC11574253.
Results are given in words; binding and its absence hold for the method and conditions named. Binding seen in cells or lysates may run through a third protein. Some entries that bind do so weakly or less than the wild type. Where a sequence is shown, tags or fusion partners need not be part of it.

Amino acid sequences for entries named in this document (tags omitted).
UniProt P49674: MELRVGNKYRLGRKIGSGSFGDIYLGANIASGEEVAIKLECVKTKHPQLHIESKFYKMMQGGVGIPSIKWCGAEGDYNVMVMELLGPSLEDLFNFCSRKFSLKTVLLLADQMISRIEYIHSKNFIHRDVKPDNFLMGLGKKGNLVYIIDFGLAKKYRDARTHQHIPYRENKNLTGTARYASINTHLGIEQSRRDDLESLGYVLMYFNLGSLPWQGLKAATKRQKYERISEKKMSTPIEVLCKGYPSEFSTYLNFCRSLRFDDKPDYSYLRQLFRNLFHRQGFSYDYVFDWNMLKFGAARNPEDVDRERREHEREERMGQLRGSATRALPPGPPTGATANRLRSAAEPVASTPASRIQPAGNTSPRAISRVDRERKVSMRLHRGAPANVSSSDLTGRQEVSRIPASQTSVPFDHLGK

T1: Flag-tagged human DVL3 (Dishevelled 3), wild type (human) (UniProt Q92997)
T1 sequence: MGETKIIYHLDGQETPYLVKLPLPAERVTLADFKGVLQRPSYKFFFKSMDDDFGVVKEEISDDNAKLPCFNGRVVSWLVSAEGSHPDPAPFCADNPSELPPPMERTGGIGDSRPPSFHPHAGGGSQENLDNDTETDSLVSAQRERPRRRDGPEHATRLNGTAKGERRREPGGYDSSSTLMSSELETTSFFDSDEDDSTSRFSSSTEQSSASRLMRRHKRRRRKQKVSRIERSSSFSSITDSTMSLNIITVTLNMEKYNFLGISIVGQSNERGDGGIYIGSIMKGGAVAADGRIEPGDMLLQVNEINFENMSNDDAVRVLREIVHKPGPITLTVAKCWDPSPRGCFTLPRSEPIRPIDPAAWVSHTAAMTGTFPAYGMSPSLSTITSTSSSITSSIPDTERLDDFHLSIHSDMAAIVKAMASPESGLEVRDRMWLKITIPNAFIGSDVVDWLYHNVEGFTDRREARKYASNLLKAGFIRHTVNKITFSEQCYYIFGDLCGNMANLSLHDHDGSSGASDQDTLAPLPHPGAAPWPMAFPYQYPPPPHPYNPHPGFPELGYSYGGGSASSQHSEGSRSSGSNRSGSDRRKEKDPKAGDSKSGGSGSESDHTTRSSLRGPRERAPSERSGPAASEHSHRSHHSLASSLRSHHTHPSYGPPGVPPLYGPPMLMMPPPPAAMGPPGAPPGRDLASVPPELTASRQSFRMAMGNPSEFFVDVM

T2: Flag-DVL1 (human) (UniProt O14640)
T2 sequence: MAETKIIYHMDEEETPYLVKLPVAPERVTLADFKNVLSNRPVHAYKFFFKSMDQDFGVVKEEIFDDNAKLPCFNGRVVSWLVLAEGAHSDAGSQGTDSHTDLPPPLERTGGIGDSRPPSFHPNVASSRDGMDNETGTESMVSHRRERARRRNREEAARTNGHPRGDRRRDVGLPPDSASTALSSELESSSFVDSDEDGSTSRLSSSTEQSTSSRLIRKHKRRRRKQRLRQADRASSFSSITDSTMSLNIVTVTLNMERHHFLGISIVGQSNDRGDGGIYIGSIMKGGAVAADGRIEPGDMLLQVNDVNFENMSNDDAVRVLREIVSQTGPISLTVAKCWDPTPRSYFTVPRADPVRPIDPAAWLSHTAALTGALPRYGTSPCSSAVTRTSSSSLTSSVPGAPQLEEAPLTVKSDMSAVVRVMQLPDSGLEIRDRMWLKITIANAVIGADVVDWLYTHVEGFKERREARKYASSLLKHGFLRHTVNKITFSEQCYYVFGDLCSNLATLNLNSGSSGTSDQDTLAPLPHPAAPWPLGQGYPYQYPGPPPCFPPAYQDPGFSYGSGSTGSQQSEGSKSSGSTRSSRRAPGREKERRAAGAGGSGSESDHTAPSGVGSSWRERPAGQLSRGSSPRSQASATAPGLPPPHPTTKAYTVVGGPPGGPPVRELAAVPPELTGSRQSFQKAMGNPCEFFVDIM

T3: Flag-DVL3 E710A/D714A (glutamylation-defective) (human) (UniProt Q92997)
T3 sequence: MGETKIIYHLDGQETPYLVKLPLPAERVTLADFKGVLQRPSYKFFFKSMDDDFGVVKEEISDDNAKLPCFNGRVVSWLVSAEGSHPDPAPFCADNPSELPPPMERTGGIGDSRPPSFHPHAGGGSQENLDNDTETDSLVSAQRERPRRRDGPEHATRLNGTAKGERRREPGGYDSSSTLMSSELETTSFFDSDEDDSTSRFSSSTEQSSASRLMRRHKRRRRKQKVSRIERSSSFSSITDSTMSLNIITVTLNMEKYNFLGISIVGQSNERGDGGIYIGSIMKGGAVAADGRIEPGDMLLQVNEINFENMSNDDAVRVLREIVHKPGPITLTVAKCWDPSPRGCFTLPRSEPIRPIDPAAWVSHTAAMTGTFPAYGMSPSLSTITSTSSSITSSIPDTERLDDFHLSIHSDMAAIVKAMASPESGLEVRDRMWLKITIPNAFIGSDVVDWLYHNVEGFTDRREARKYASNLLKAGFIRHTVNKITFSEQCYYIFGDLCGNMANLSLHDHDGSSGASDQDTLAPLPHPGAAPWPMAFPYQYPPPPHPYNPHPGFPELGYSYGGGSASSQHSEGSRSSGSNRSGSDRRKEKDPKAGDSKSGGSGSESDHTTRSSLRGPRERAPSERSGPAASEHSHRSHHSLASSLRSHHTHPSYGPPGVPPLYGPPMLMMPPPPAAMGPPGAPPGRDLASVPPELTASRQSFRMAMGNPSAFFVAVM


Legend:
[1] = biological target: T1, Flag-tagged human DVL3 (Dishevelled 3), wild type (human); test: co-IP; endogenous CK1ε with overexpressed DVL3 in HEK293 cells, without or with co-expressed TTLL11
Flag-DVL1 (human) = biological target: T2, Flag-DVL1 (human); test: co-IP; Flag-DVL (DVL1, DVL2, DVL3 or DVL3 truncation mutants) and TTLL11 overexpressed in HEK293T; IP anti-Flag, TTLL11 detected with anti-GFP; lysis buffer 50 mM Tris pH 7.4, 150 mM NaCl, 1 mM EDTA, 0.5% NP40, 4 °C; also after 3 h of 100 ng/ml Wnt3a or Wnt5a (interaction not modified)
[2] = biological target: T1, Flag-tagged human DVL3 (Dishevelled 3), wild type (human); test: as above
[3] = biological target: T3, Flag-DVL3 E710A/D714A (glutamylation-defective) (human); test: co-IP; Flag-DVL3 variants co-expressed with EYFP-tagged CCP1, CCP5 or CCP6 in HEK293T; IP anti-Flag (DVL3) with WB GFP, and IP anti-GFP (CCPs) with WB Flag
[4] = biological target: T1, Flag-tagged human DVL3 (Dishevelled 3), wild type (human); test: as above

binding [1] | binding (Flag-DVL1 (human)) | binding [2] | binding [3] | binding [4] | Molecule
binds |  |  |  |  | casein kinase 1 ε (CK1ε), endogenous (from UniProt P49674 1-416) (enzyme)
 | binds | binds |  |  | human TTLL11 (hTTLL11), EYFP-tagged (enzyme, UniProt Q8NHH1 1-710) MRRGSSESELAARWEAEAVAAAKAAAKAEAEATAETVAEQVRVDAGAAGEPECKAGEEQPKVLAPAPAQPSAAEEGNTQVLQRPPPTLPPSKPKPVQGLCPHGKPRDKGRSCKRSSGHGSGENGSQRPVTVDSSKARTSLDALKISIRQLKWKEFPFGRRLPCDIYWHGVSFHDNDIFSGQVNKFPGMTEMVRKITLSRAVRTMQNLFPEEYNFYPRSWILPDEFQLFVAQVQMVKDDDPSWKPTFIVKPDGGCQGDGIYLIKDPSDIRLAGTLQSRPAVVQEYICKPLLIDKLKFDIRLYVLLKSLDPLEIYIAKDGLSRFCTEPYQEPTPKNLHRIFMHLTNYSLNIHSGNFIHSDSASTGSKRTFSSILCRLSSKGVDIKKVWSDIISVVIKTVIALTPELKVFYQSDIPTGRPGPTCFQILGFDILLMKNLKPILLEVNANPSMRIEHEHELSPGVFENVPSLVDEEVKVAVIRDTLRLMDPLKKKRENQSQQLEKPFAGKEDALDGELTSAPDCNANPEAHLPSICLKQVFPKYAKQFNYLRLVDRMANLFIRFLGIKGTMKLGPTGFRTFIRSCKLSSSSLSMAAVDILYIDITRRWNSMTLDQRDSGMCLQAFVEAFFFLAQRKFKMLPLHEQVASLIDLCEYHLSLLDEKRLVCGRGVPSGGRPPHRGPPQEPSPSAQPAGDNPPPRTSCANKLSHPRHTLS
 |  |  | binds | binds | EYFP-tagged CCP6 (enzyme, UniProt Q09LZ8 1-540) MAERSQTAPEAGNDTGNEDAIGGNVNKYIVLPNGYSGQPKKGHLTFDACFESGNLGRVEQVSDFEYDLFIRPDTCNPRFRVWFNFTVENVKELQRVIFNIVNFSKTKSLYRDGMAPMVKSTSRPKWQRLPPKNVYYYRCPDHRKNYVMSFAFCFDREDDIYQFAYCYPYTYTRFQHYLDSLQKKNMDYFFREQLGQSVQQRQLDLLTITSPENLREGSEKKVIFITGRVHPGETPSSFVCQGIIDFLVSQHPIARVLREHLVFKIAPMLNPDGVYLGNYRCSLMGFDLNRHWLDPSPWAHPTLHGVKQLIIKMYNDPKTSLEFYIDIHAHSTMMNGFMYGNIFEDEERFQRQSIFPKLLCQNAEDFSYTSTSFNRDAVKAGTGRRFLGGLLDHSSYCYTLEVSFYSYIIGGTTAAVPYTEEAYMKLGRNVARTFLDYYRLNSLVEKIAVPMPRLRSKEERRLGWEHPSCLRAEQPLEVLGIPMCSGKALNEHLGNDIQWHLDCGSSTLPLGLISCSPSSSASWNDMAMSNSILLPDHSFH

The next lines start with the molecule.

Molecule | binding [1] | binding (Flag-DVL1 (human)) | binding [2] | binding [3] | binding [4]
EYFP-tagged CCP1 (enzyme, UniProt Q641K1 1-1218) MSKLKVVGEKSLTNSSRVVGLLAQLEKINTDSTESDTARYVTSKILHLAQSQEKTRREMTTKGSTGMEVLLSTLENTKDLQTVLNILSILIELVSSGGGRRASFLVAKGGSQILLQLLMNASKDSPPHEEVMVQTHSILAKIGPKDKKFGVKARVNGALTVTLNLVKQHFQNYRLVLPCLQLLRVYSTNSVNSVSLGKNGVVELMFKIIGPFSKKNSGLMKVALDTLAALLKSKTNARRAVDRGYVQVLLTIYVDWHRHDNRHRNMLIRKGILQSLKSVTNIKLGRKAFIDANGMKILYNTSQECLAVRTLDPLVNTSSLIMRKCFPKNRLPLPTIKSSFHFQLPIIPVTGPVAQLYSLPPEVDDVVDESDDNDDIDLEVENELENEDDLDQSFKNDDIETDINKLRPQQVPGRTIEELKMYEHLFPELVDDFQDYELISKEPKPFVFEGKARGPIVVPTAGEEVPGNSGSVKKGVVMKERASPKGEEAKEDPKGHDRTLPQQLGGQSRVAPSAHSFNNDLVKALDRITLQNVPSQVASGLNAGMRKDFGLPLTVLSCTKACPHVAKCGSTLFEGRTVHLGKLCCTGVETEDDEDTESHSSTEQAPSVEASDGPTLHDPDLYIEIVKNTKSVPEYSEVAYPDYFGHIPPPFKEPILERPYGVQRTKIAQDIERLIHQNDIIDRVVYDLDNPTYTTPEEGDTLKFNSKFESGNLRKVIQIRKSEYDLILNSDINSNHYHQWFYFEVSGMRPGVAYRFNIINCEKSNSQFNYGMQPLMYSVQEALNARPWWIRMGTDICYYKNHFSRSSVAAGGQKGKSYYTITFTVNFPHKDDVCYFAYHYPYTYSTLQMHLQKLESAHNPQQIYFRKDVLCETLSGNICPLVTITAMPESNYYEHICQFRTRPYIFLSARVHPGETNASWVMKGTLEYLMSNSPTAQSLRESYIFKIVPMLNPDGVINGNHRCSLSGEDLNRQWQSPNPELHPTIYHAKGLLQYLAAVKRLPLVYCDYHGHSRKKNVFMYGCSIKETVWHTHDNSASCDIVEDMGYRTLPKILSHIAPAFCMSSCSFVVEKSKESTARVVVWREIGVQRSYTMESTLCGCDQGRYKGLQIGTRELEEMGAKFCVGLLRLKRLTSSLEYNLPSNLLDFENDLIESSCKVTSPTTYVLDEDEPRFLEEVDYSAESNDELDVELAENTGDYEPSAQEEALSDSEVSRTHLI |  |  |  | binds | binds
EYFP-tagged CCP5 (enzyme, UniProt Q09M02 1-886) MELRCGGLLFSSRFDSGNLAHVEKVETVSSDGEGVGGVATAPASGSAASPDYEFNVWTRPDCAETEYENGNRSWFYFSVRGGTPGKLIKINIMNMNKQSKLYSQGMAPFVRTLPSRPRWERIRERPTFEMTETQFVLSFVHRFVEGRGATTFFAFCYPFSYSDCQDLLSQLDQRFSENYSTHSSPLDSIYYHRELLCYSLDGLRVDLLTITSCHGLRDDREPRLEQLFPDLGTPRPFRFTGKRIFFLSSRVHPGETPSSFVFNGFLDFILRPDDPRAQTLRRLFVFKLIPMLNPDGVVRGHYRTDSRGVNLNRQYLKPDAVLHPAIYGAKAVLLYHHVHSRLNAKSPTNQQPTLHLPPEAPLSDLEKANNLHNEAHLGQSPDGENPATWPETEPAEEKTDPVWLMPQPIPELEEPAPDTIPPKESGVAYYVDLHGHASKRGCFMYGNSFSDESTQVENMLYPKLISLNSAHFDFQGCNFSEKNMYARDRRDGQSKEGSGRVAIYKASGIIHSYTLECNYNTGRSVNSIPAACHDNGRASPPPPPAFPSRYTVELFEQVGRAMAIAALDMAECNPWPRIVLSEHSSLTNLRAWMLRHVRNSRGLTSAGNMGASKKRGARTPPKSNNSLPVSCSENALSRVRSFSTGTSTGGSSSSQQNSPQMKNSPSFPFHGSRTAGLPGLGSSTQKVSHRVLGPVREPRCSDRRRRQQPLNHRSTTSSLAPSPTLASSGPTSSRNMGSCLLPNSLSLSGSSCSFSSSGDKPEAVMVIGKSLLGAGARIPCIRTRLQARPRLGRSSPPTRRGMRGSSPTSPIPQTRESSELEPGPHSATPGLPQAGPPRPRSAPAFSPISCTLSDSPSRICYSRGLLNQCEVCFVPKSPPLTISPRV |  |  |  | binds | binds
